Experimental data as given in patent publication US11026943B2, “Aminoquinoline derivatives and uses thereof” (UNIVERSITY OF DELHI, priority 2012, dated 2021).
Some entries share one result that the patent states for a list of compounds. Some compounds share one range, which may span the group rather than tell each member.

Test system: CQ-sensitive (D6 clone) strain of P. falciparum
Test: In vitro antimalarial activity, CQ-sensitive strain
Type: cell-based, Plasmodium falciparum
From the text: Med. Chem. 2005, 13, 4458; Khan, I. A. Lipids 2004, 37, 169].

Row | Compound | activity fold higher than CQ
1 | CCN1CCN(c2nc(C)cc(NCCCNc3ccnc4cc(Cl)ccc34)n2)CC1 [12m, N-(7-Chloro-quinolin-4-yl)-N′-[2-(4-ethyl-piperazin-1-yl)-6-methyl-pyrimidin-4-yl]-propane-1,3-diamine] | 7-8 fold
2 | Cc1cc(NCCCCCCNc2ccnc3cc(Cl)ccc23)nc(N2CCN(C)CC2)n1 [12l, N-(7-Chloro-quinolin-4-yl)-N′-[6-methyl-2-(4-methyl-piperazin-1-yl)-pyrimidin-4-yl]-hexane-1,6-diamine] | 7-8 fold
3 | Cc1cc(NCCCNc2ccnc3cc(Cl)ccc23)nc(N2CCN(C)CC2)n1 [12j, N-(7-Chloro-quinolin-4-yl)-N′-[6-methyl-2-(4-methyl-piperazin-1-yl)-pyrimidin-4-yl]-propane-1,3-diamine] | 7-8 fold
4 | Cc1cc(NCCNc2ccnc3cc(Cl)ccc23)nc(N2CCN(C)CC2)n1 [12i, N-(7-Chloro-quinolin-4-yl)-N′-[6-methyl-2-(4-methyl-piperazin-1-yl)-pyrimidin-4-yl]-ethane-1,2-diamine] | 7-8 fold
